Laboratory results taken from patent EP2633864A1, “Clip inhibitors and methods of modulating immune function” (The Regents of the University of Colorado, priority 2008, dated 2010).
For some of these results: Part of at least one peptide drawing is inferred or uncertain, most often the ends. For some of these results: At least one compound was matched to its structure with a doubt left. No end group written: not given here.

Assays:
B cell surface CLIP = test: Effect on B cell surface CLIP (Figure 4); type: cell-based
B6.129 (H-2^b) mice = test: CpG-ODN (TLR9) induced chronic hyperimmune activation in mice, with or without peptide; type: in vivo, mouse; conditions: VGV-hB in combination with TLR 9 stimulation; lymph node and spleen
[1] = test system: CLIP+ B cells of human PBMC; test: Peptide reversal of R848 induced ectopic CLIP on B cells in human PBMC cultures; type: cell-based; conditions: PBMC of two donors; R848 for 48 hours; VGV-hB to pre-treatment levels

O=C(O)C(Cl)Cl [dichloroacetate]
B cell surface CLIP (B cell surface CLIP): affects B cell surface CLIP

FRIMAVLAS [VGV-hB]
B cell death (B6.129 (H-2^b) mice): increased B cell death

ANSGIIGDITEEVGGQY [VGV-pB, reference compound]
level of CLIP per B cell [1]: in one individual but not the other
percentage (frequency) of CLIP+ B cells [1]: in one individual but not the other
